{"source": "PubChem BioAssay AID493246 | Drosophila RNAi Screening Center – 2011", "aim": "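Genome-wide search for dsRNAs that reduce cell number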 (primary screen)", "cells": "Drosophila Kc and S2R+ cells", "knock-down reagent": "long dsRNA against Drosophila genes", "measurement": "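Raw, unnormalised count of remaining cells in each well; per-plate z-scores of cell number underlie the calls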", "reading the numbers": "Kc cell number and S2R+ cell number: higher = more cells remaining", "active means": "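Counted as a hit if cell number falls by a z-score of at least 3 within its plate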", "note": "The screen tested about 21,000 reagents; shown is a random part of those with a known target gene and a result. In the full data, 429 (2%) were called active. 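Values are raw and not normalised between plates; calls rest on per-plate z-scores that were not deposited.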 Entries without a mark were called inactive. A plus sign joins genes that one reagent is predicted to hit. The record does not give: the amount of reagent, the time to read-out."}
The first 2 entries, ahead of the listing:
{"gene knocked down": "CG15376 (retired record)", "amplicon": "DRSC18046", "Kc cell number, rep 1": 1.56e6, "Kc cell number, rep 2": 1.53e6, "S2R+ cell number, rep 1": 9.26e5, "S2R+ cell number, rep 2": 1.02e6}
{"gene knocked down": "CG11241", "amplicon": "DRSC11641", "Kc cell number, rep 1": 1.40e6, "Kc cell number, rep 2": 1.38e6, "S2R+ cell number, rep 1": 1.03e6, "S2R+ cell number, rep 2": 1.11e6}

Main list, repeating the preview:
{"gene knocked down": "CG15376 (retired record)", "amplicon": "DRSC18046", "Kc cell number, rep 1": 1.56e6, "Kc cell number, rep 2": 1.53e6, "S2R+ cell number, rep 1": 9.26e5, "S2R+ cell number, rep 2": 1.02e6}
{"gene knocked down": "CG11241", "amplicon": "DRSC11641", "Kc cell number, rep 1": 1.40e6, "Kc cell number, rep 2": 1.38e6, "S2R+ cell number, rep 1": 1.03e6, "S2R+ cell number, rep 2": 1.11e6}
{"gene knocked down": "CG32236", "amplicon": "DRSC08117", "Kc cell number, rep 1": 1.44e6, "Kc cell number, rep 2": 1.39e6, "S2R+ cell number, rep 1": 9.94e5, "S2R+ cell number, rep 2": 1.19e6}
{"gene knocked down": "Syx16", "amplicon": "DRSC20507", "Kc cell number, rep 1": 1.43e6, "Kc cell number, rep 2": 1.50e6, "S2R+ cell number, rep 1": 1.02e6, "S2R+ cell number, rep 2": 1.21e6}
{"gene knocked down": "CG34384", "amplicon": "DRSC12644", "Kc cell number, rep 1": 1.39e6, "Kc cell number, rep 2": 1.52e6, "S2R+ cell number, rep 1": 1.09e6, "S2R+ cell number, rep 2": 1.24e6}
{"gene knocked down": "CG34384", "amplicon": "DRSC14855", "Kc cell number, rep 1": 1.35e6, "Kc cell number, rep 2": 1.36e6, "S2R+ cell number, rep 1": 1.25e6, "S2R+ cell number, rep 2": 1.42e6}
{"gene knocked down": "CG34384", "amplicon": "DRSC15444", "Kc cell number, rep 1": 1.48e6, "Kc cell number, rep 2": 1.50e6, "S2R+ cell number, rep 1": 1.37e6, "S2R+ cell number, rep 2": 1.52e6}
{"gene knocked down": "CG34384", "amplicon": "DRSC16575", "Kc cell number, rep 1": 1.40e6, "Kc cell number, rep 2": 1.49e6, "S2R+ cell number, rep 1": 1.39e6, "S2R+ cell number, rep 2": 1.46e6}
{"gene knocked down": "CG9582", "amplicon": "DRSC03267", "Kc cell number, rep 1": 1.54e6, "Kc cell number, rep 2": 1.58e6, "S2R+ cell number, rep 1": 1.12e6, "S2R+ cell number, rep 2": 1.32e6}
{"gene knocked down": "CR11386 + CR33222", "amplicon": "DRSC17781", "Kc cell number, rep 1": 1.39e6, "Kc cell number, rep 2": 1.41e6, "S2R+ cell number, rep 1": 1.02e6, "S2R+ cell number, rep 2": 1.12e6}
{"gene knocked down": "CG5013", "amplicon": "DRSC15695", "Kc cell number, rep 1": 1.29e6, "Kc cell number, rep 2": 1.33e6, "S2R+ cell number, rep 1": 1.14e6, "S2R+ cell number, rep 2": 1.26e6}
{"gene knocked down": "Or22a", "amplicon": "DRSC00764", "Kc cell number, rep 1": 1.65e6, "Kc cell number, rep 2": 1.68e6, "S2R+ cell number, rep 1": 1.14e6, "S2R+ cell number, rep 2": 1.29e6}
{"gene knocked down": "AstC-R2", "amplicon": "DRSC10051", "Kc cell number, rep 1": 1.40e6, "Kc cell number, rep 2": 1.67e6, "S2R+ cell number, rep 1": 1.40e6, "S2R+ cell number, rep 2": 1.48e6}
{"gene knocked down": "CG12020", "amplicon": "DRSC08226", "Kc cell number, rep 1": 1.36e6, "Kc cell number, rep 2": 1.38e6, "S2R+ cell number, rep 1": 1.10e6, "S2R+ cell number, rep 2": 1.23e6}
{"gene knocked down": "Non1", "amplicon": "DRSC05954", "Kc cell number, rep 1": 1.21e6, "Kc cell number, rep 2": 1.24e6, "S2R+ cell number, rep 1": 8.36e5, "S2R+ cell number, rep 2": 9.27e5}
{"gene knocked down": "COX8", "amplicon": "DRSC11814", "Kc cell number, rep 1": 1.27e6, "Kc cell number, rep 2": 1.36e6, "S2R+ cell number, rep 1": 1.07e6, "S2R+ cell number, rep 2": 1.14e6}
{"gene knocked down": "CG9313", "amplicon": "DRSC04540", "Kc cell number, rep 1": 1.65e6, "Kc cell number, rep 2": 1.72e6, "S2R+ cell number, rep 1": 9.83e5, "S2R+ cell number, rep 2": 1.07e6}
{"gene knocked down": "Ubx", "amplicon": "DRSC16891", "Kc cell number, rep 1": 1.36e6, "Kc cell number, rep 2": 1.30e6, "S2R+ cell number, rep 1": 1.01e6, "S2R+ cell number, rep 2": 1.05e6}
{"gene knocked down": "CG11601", "amplicon": "DRSC00318", "Kc cell number, rep 1": 1.60e6, "Kc cell number, rep 2": 1.64e6, "S2R+ cell number, rep 1": 1.14e6, "S2R+ cell number, rep 2": 1.29e6}
{"gene knocked down": "CG34032 (retired record)", "amplicon": "DRSC09225", "Kc cell number, rep 1": 1.60e6, "Kc cell number, rep 2": 1.84e6, "S2R+ cell number, rep 1": 1.09e6, "S2R+ cell number, rep 2": 1.27e6}
{"gene knocked down": "bumpel", "amplicon": "DRSC16100", "Kc cell number, rep 1": 1.49e6, "Kc cell number, rep 2": 1.61e6, "S2R+ cell number, rep 1": 1.33e6, "S2R+ cell number, rep 2": 1.43e6}
